The target of assay [1] is pTBK1-HA (porcine TBK1) (porcine). Briefly: co-IP; 293T cotransfected with 0.5 μg GFP-STING, 0.5 μg TBK1-HA and increasing pIKKε (0.5, 1, 1.5 μg), IP with anti-HA; or 0.5 μg GFP-STING, 0.5 μg mCherry-IKKε and increasing pTBK1 (0.5, 1, 1.5 μg), IP with anti-mCherry; 48 h; Western blot. Background: In western blotting, separated proteins are transferred to a membrane and probed.

Sequences of proteins named here, by UniProt entry; tags and fusion partners are left off. A change or cut given only in a name is not applied to a line headed by its entry.
UniProt B8XX90: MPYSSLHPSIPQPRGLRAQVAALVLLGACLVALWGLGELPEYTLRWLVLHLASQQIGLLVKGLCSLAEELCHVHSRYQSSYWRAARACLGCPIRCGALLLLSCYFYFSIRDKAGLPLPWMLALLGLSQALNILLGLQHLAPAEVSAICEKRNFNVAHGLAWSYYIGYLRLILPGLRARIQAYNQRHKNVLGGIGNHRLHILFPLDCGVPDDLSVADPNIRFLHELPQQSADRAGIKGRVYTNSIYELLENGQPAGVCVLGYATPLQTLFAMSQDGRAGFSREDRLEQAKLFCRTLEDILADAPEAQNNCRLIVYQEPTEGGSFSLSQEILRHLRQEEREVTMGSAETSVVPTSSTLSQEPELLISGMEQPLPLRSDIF

Assay [2] concerns the target mCherry-pTBK1 (porcine TBK1) (porcine). Briefly: co-IP; HEK293T cotransfected with the two tagged proteins for 48 h (legends; the methods say 24 h); lysis buffer 50 mM Tris pH 7.2, 150 mM NaCl, 1% sodium deoxycholate, 1% Triton X-100; antibody overnight at 4 °C, protein A/G beads 2 h; co-IP and reverse co-IP; Western blot.
Assay [3] deals with T1, mCherry-pIKKε (porcine IKKε) (porcine) (UniProt M9MMN5).
T1 sequence: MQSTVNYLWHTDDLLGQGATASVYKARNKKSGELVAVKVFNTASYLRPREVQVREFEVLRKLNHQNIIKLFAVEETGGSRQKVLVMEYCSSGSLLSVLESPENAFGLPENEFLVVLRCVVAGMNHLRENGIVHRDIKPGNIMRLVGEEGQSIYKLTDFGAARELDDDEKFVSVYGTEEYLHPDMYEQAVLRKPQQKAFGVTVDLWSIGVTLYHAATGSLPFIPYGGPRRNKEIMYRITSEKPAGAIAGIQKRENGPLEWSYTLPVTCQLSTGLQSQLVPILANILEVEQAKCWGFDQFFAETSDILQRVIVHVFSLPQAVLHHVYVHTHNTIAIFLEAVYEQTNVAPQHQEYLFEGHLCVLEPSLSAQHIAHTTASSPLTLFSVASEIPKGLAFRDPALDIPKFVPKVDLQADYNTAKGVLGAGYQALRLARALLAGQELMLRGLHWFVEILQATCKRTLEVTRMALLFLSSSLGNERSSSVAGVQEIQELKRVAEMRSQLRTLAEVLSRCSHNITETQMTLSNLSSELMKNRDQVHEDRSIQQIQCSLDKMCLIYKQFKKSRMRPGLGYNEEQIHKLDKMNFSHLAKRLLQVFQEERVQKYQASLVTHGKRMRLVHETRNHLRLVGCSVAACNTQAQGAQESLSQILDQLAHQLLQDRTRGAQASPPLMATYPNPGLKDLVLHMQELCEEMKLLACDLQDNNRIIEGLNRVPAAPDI
The assay is described as above.

Assay [4] deals with GFP-pSTING (porcine STING) (porcine) (UniProt B8XX90). The description is as above.
Assay [5] addresses T2, GFP-pIRF3 (porcine IRF3) (porcine) (UniProt Q764M6).
T2 sequence: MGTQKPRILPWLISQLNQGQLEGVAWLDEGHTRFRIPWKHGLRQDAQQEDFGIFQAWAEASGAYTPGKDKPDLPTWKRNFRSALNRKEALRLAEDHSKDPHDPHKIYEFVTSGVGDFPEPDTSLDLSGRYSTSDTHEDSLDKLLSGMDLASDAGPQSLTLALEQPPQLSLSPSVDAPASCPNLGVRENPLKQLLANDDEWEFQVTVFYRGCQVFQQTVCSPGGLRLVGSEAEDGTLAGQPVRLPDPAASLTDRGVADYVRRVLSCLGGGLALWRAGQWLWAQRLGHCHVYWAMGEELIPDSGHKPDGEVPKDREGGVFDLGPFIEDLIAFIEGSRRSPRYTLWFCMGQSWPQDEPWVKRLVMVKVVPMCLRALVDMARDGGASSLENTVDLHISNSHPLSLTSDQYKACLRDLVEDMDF
The assay is described as above.

Results are given in words; binding and its absence hold for the method and conditions named. Binding seen in cells or lysates may run through a third protein. For some assays here: Binding can be weak; no strength is given. For some assays here: Tags and fused reporters may be left off the sequences shown.

Turning to “GFP-pSTING (porcine STING) (from UniProt B8XX90 1-378)”, the binding result in assay [1] and in assay [2] was “binds” in each case.

With GFP-pSTING ΔTBM (from UniProt B8XX90), the binding result in assay [3] is “no binding”.

For the substance “mCherry-pTBK1 (porcine TBK1) (from UniProt A0A4X1W422)”, the binding entry in assay [4] is “binds”.

With “pTBK1-HA (porcine TBK1) (from UniProt A0A4X1W422)”, the binding entry in assay [5] is recorded as “binds”.

The values above are taken from PMC10520887.
